Source: paper PMC10604759
These are yes or no findings as the source states them, for the method shown. Binding seen in cells or lysates may run through a third protein. Some binding calls cover weakened binding; strength is not graded here.

Amino acid sequences for entries named in this document (tags omitted).
UniProt O08788: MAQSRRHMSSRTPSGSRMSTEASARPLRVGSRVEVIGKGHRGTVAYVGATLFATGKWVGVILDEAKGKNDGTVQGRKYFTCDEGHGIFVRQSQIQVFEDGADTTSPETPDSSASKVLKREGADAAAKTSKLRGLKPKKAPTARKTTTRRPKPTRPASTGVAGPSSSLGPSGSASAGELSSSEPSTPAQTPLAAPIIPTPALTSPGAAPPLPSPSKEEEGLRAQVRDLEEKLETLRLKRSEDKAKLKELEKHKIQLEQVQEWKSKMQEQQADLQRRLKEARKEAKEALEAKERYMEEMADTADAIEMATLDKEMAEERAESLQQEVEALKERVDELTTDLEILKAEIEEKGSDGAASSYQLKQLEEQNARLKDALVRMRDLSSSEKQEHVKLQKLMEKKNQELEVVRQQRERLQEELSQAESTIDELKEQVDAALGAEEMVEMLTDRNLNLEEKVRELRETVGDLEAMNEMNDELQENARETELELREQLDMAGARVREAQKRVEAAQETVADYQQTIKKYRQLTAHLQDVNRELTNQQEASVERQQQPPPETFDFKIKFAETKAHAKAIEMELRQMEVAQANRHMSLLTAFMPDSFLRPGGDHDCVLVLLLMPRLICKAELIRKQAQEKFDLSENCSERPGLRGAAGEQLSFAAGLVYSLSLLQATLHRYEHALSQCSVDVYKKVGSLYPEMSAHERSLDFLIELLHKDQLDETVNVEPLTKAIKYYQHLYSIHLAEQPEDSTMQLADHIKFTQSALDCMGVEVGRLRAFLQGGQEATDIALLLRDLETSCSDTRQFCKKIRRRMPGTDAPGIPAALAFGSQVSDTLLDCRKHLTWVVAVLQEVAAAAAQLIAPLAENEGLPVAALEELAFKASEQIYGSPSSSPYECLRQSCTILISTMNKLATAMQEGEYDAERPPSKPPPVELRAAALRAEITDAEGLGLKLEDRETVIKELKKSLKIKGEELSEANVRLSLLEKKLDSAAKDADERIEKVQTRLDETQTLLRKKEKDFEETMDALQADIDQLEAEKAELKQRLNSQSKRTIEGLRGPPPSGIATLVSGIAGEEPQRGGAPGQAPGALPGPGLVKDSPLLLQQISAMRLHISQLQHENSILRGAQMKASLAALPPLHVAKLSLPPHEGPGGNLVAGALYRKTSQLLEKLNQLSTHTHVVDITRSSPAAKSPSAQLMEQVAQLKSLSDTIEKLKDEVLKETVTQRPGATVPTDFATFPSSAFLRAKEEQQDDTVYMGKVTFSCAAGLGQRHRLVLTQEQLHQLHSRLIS
UniProt P63168: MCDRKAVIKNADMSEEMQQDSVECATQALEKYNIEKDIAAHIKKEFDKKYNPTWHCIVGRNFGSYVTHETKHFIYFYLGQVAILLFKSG

Target: Dynactin1 (mouse (endogenous in AML12)) (UniProt O08788)
Assay: co-IP; endogenous proteins in AML12 cell lysate (cell lysis buffer for CO-IP); 2 ug of the corresponding antibody overnight at 4 °C, magnetic beads 2 h at room temperature, blot; cells treated with or without 5 uM Cd for 6 h

## dynein light chain LC8-type 1 (DYNLL1) (from UniProt P63168 1-89)
  binding: binds
